Source: PubChem BioAssay AID504467 (National Center for Advancing Translational Sciences (NCATS), 2011)
Screen size: about 330,000 compounds; about 7,700 (2.3%) were called active. Inconclusive means that the source gave no clear call. Such entries were picked first, then a sample of the others. Calls come from the whole dose curve; as a rule, active = well fitted inhibition curve with a large enough effect; inconclusive = small, poorly fitted or top-dose-only effect, or effect the other way; inactive = flat fitted curve, though single readings scatter. Where the call is inconclusive, the potency comes from a doubtful curve fit.
% is set by controls: 0 for no effect and ±100 for the full control effect; potency is the fitted concentration of half-maximal effect.

Assay: qHTS screen for small molecules that inhibit ELG1-dependent DNA repair in human embryonic kidney (HEK293T) cells expressing luciferase-tagged ELG1; note: nearly all actives have a fitted effect of over 55% in size
Conditions: HEK293T ELG1-luciferase reporter, luminescence, 16 h, DNA damage induced by 5-fluorouridine; activity change, negative = inhibition: at 46.1 µM (top of the series)
Method in brief: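 DMSO vehicle served as the neutral condition. Each well held 2,000 cells given 5-fluorouridine plus compound; after 16 hr at 37 °C/5% CO2, ONE-Glo was added and luciferase measured 30 min later.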
For `COc1ccc(NC(=O)c2cc(-c3ccccc3)nc3c2c(C)nn3-c2ccccc2)c(OC)c1`, the “activity change, negative = inhibition” value was inactive: -26.7%. In the case of `Cc1cccc(C(=O)NC(=S)Nc2ccccc2C(=O)O)c1`, the Potency is reported as inconclusive: 29.1 µM [activator, single point]. For `CC(C)(C)OC(=O)N1CCCC(C(=O)Nc2cccc(C(=O)N3CCCC3)c2)C1` (configuration not stated), the Potency was inconclusive: 16.4 µM [inhibitor, single point]. For `COc1ccc(OCC(O)CN2CCCCC2)cc1` (configuration not stated), the “activity change, negative = inhibition” value was inactive: 12.1%. With `CCCc1[nH]n(-c2nc3ccccc3s2)c(=O)c1C=NCCN1CCOCC1` the Potency was inconclusive: 13 µM [activator, partial curve]. For `COc1cccc(C(=O)NCc2ccc3c(c2)cc(C)n3C)c1`, the Potency was inconclusive: 29.1 µM [inhibitor, single point]. With `Cc1cc2oc(=O)cc(Cn3ccnc3)c2cc1Cl` the “activity change, negative = inhibition” value was inactive: -4.75%. In the case of `N#Cc1ccccc1S(=O)(=O)N1CCN(C(=O)c2cc3c(s2)CCC3)CC1`, the Potency is reported as inconclusive: 18.3 µM [inhibitor, single point]. In the case of `CC(C)c1ccc(/C=N/NC(=O)c2c(Cl)cnn2C)cc1`, the Potency is reported as inconclusive: 5.8 µM [activator, partial curve]. With `CCOC(=O)c1ccc(NC(=O)c2sc3nc(N4CCOCC4)c4c(c3c2N)CCCC4)cc1` the “activity change, negative = inhibition” value was inactive: -3.44%. With `COc1ccc(/C=C/C(O)=C2/C(=O)N(C)C3(C)CC2c2ccccc2O3)cc1` (configuration not stated) the Potency was inconclusive: 29.1 µM [inhibitor, single point]. With `Cc1nc2sc(-c3ccccc3)cc2c(=O)n1N` the Potency was inconclusive: 0.58 µM [activator, full curve]. With `O=C(CCc1[nH]c2ccccc2c1Sc1ccccc1)N(CCO)CCO` the Potency was inconclusive: 29.1 µM [activator, partial curve, poor fit]. For `COc1ccccc1C(=O)NCCC(=O)NCc1ccccn1`, the “activity change, negative = inhibition” value was inactive: 17.5%. In the case of `CC1CN(c2oc(COc3ccc(Cl)cc3Cl)nc2C#N)CC(C)O1` (configuration not stated), the Potency is reported as inconclusive: 0.164 µM [inhibitor, partial curve, poor fit]. In the case of `CC(C)(C)SCCNC(=O)c1ccc(CN2CCc3ccccc3C2)cc1`, the “activity change, negative = inhibition” value is reported as inactive: 20%. With `CC1=NN(c2ccc([N+](=O)[O-])cc2)C(c2ccccc2)C1` (configuration not stated) the Potency was inconclusive: 29.1 µM [inhibitor, single point]. For `O=C(COc1cccc(Cl)c1)NNC(=S)Nc1ccccc1`, the “activity change, negative = inhibition” value was inactive: 12.4%. With `CSc1cccc(CNC(=O)C2CCC(=O)N(CCCN3CCCC3=O)C2)c1` (configuration not stated) the “activity change, negative = inhibition” value was inactive: 7.77%. In the case of `CC1CCCCN1C(=O)Nc1ccccc1Cl` (configuration not stated), the Potency is reported as inconclusive: 6.51 µM [inhibitor, single point]. In the case of `Cc1nc(C#N)c(N/N=C/c2cccc(Cl)c2)o1`, the Potency is reported as inconclusive: 18.4 µM [activator, partial curve]. With `Cc1ccc(-n2ccc(=O)c(C(=O)Nc3ccc(S(=O)(=O)Nc4onc(C)c4C)cc3)n2)cc1` the Potency was inconclusive: 20.6 µM [activator, partial curve, poor fit]. With `CC(=O)N[C@H]1[C@H](Oc2ccc3c(c2)CCC2C3CC[C@]3(C)C(=O)CCC23)O[C@H](CO)[C@@H](O)[C@@H]1O` (some centres not stated) the “activity change, negative = inhibition” value was inactive: -14.4%. With `CCn1c(C(=O)NCCCc2ccccc2)cc2sccc21` the “activity change, negative = inhibition” value was inactive: -6.81%. For `Cc1ccc(C2=N/C(=C\N(C)C)C(=O)O2)cc1`, the Potency was inconclusive: 18.4 µM [activator, partial curve]. For `CCNC(=S)N/N=C/c1cn(Cc2ccc(F)cc2)c2ccccc12`, the “activity change, negative = inhibition” value was inactive: -14.1%. With `COc1ccc(CN=Nc2cc(C)nc(NS(=O)(=O)c3ccccc3Cl)n2)cc1` the “activity change, negative = inhibition” value was inactive: 2.48%. In the case of `O=C(O)C1C2C=CC(O2)C1C(=O)Nc1ccccc1C(F)(F)F` (configuration not stated), the Potency is reported as inconclusive: 32.6 µM [inhibitor, partial curve, poor fit]. With `Cc1cccc(CN2CCc3c(OCC(=O)N4CCCc5ccccc54)cccc3C2=O)c1` the Potency was inconclusive: 18.4 µM [inhibitor, single point]. With `CC(C)c1onc(C(=O)N2CCN(c3ccc(F)cc3)CC2)c1[N+](=O)[O-]` the “activity change, negative = inhibition” value was inactive: 12%. For `COc1ccccc1C(=O)NCCn1cc(SCC(=O)NCc2ccco2)c2ccccc21`, the Potency was active: 25.9 µM. In the case of `CN1CCc2c(sc(/N=C/c3c[nH]c4ccccc34)c2C#N)C1`, the Potency is reported as inconclusive: 20.6 µM [activator, partial curve]. With `CN1C(=S)N(c2ccccc2)C(=O)/C1=C/c1cccs1` the Potency was inconclusive: 29.1 µM [activator, partial curve, poor fit]. In the case of `CCNc1nc(N)c(C(=C(C#N)C#N)c2ccccc2)s1`, the “activity change, negative = inhibition” value is reported as inactive: -7.67%. For `COC(CNC(=O)C(=O)Nc1cc2c3c(c1)CCN3C(=O)CC2)OC`, the Potency was inconclusive: 18.3 µM [activator, single point]. In the case of `COc1ccc(CN(C)Cc2cc(=O)oc3cc(C)c(C(C)C)cc23)cc1OC`, the Potency is reported as active: 18.3 µM. For `Cc1cc[n+](-c2[nH]c(=O)sc2/C=N/N=C(\[O-])c2ccncc2)cc1C`, the “activity change, negative = inhibition” value was inactive: 4.18%.
